Source: article PMC8316566
Results are given in words; binding and its absence hold for the method and conditions named. Binding seen in cells or lysates may run through a third protein. A yes stands for co-enrichment or nearness to the bait. Other partners may have been found. No binding means not detected with the bait.

The chains behind the UniProt entries cited, without tags or fusion partners.
UniProt A4D1E9: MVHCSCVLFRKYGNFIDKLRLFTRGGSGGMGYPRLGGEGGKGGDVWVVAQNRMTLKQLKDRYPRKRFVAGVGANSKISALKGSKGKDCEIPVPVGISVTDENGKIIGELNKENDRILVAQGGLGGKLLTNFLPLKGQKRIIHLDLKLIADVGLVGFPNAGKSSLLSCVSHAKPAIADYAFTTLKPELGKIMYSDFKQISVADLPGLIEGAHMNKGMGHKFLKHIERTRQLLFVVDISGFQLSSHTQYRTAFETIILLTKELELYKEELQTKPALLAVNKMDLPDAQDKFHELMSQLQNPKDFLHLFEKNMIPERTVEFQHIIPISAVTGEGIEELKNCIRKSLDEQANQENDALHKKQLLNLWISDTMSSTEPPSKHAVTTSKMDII

Target: GTPBP10 with C-terminal Strep-Flag tag (human) (UniProt A4D1E9)
Test: affinity purification with mass spectrometry; Flag-tagged MALSU1 or GTPBP10 as bait, cleared HEK293 lysate on anti-Flag beads 2 h, wash 20 mM HEPES pH 7.4, 150 mM KOAc, 5 mM Mg(OAc)2, 1 mM DTT, elution with 3xFlag peptide; eluate analysed by mass spectrometry

- binding: no binding
B1: MTG2 (protein, UniProt Q9H4K7 1-406)
chain: MAPARCFSARLRTVFQGVGHWALSTWAGLKPSRLLPQRASPRLLSVGRADLAKHQELPGKKLLSEKKLKRYFVDYRRVLVCGGNGGAGASCFHSEPRKEFGGPDGGDGGNGGHVILRVDQQVKSLSSVLSRYQGFSGEDGGSKNCFGRSGAVLYIRVPVGTLVKEGGRVVADLSCVGDEYIAALGGAGGKGNRFFLANNNRAPVTCTPGQPGQQRVLHLELKTVAHAGMVGFPNAGKSSLLRAISNARPAVASYPFTTLKPHVGIVHYEGHLQIAVADIPGIIRGAHQNRGLGSAFLRHIERCRFLLFVVDLSQPEPWTQVDDLKYELEMYEKGLSARPHAIVANKIDLPEAQANLSQLRDHLGQEVIVLSALTGENLEQLLLHLKVLYDAYAEAELGQGRQPLRW
